Test results published in PubChem BioAssay AID2685 (National Center for Advancing Translational Sciences (NCATS), 2010).
The whole screen tested about 320,000 compounds, of which about 2,100 (0.66%) were called active. Inconclusive results, whose numbers are uncertain, are shown with a selection of clear calls. Calls come from the whole dose curve; as a rule, active = well fitted inhibition curve with a large enough effect in the signal ratio, with a control signal flat (not every such curve was filed as active); inconclusive = small, poorly fitted or top-dose-only effect, or effect the other way, or a change in a side signal; inactive = flat fitted curve, though single readings scatter; the % refers to the signal ratio. A potency beside an inconclusive call is a rough fit, not a confirmed value.

Assay: qHTS Assay for Lipid Storage Modulators in Drosophila S3 Cells
Settings: BODIPY lipid droplet fluorescence, 18-24 h, cells fed with added oleic acid; lipid storage change, negative = inhibition: at 46.1 µM (top of the series) unless noted
Method in brief: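 Drosophila S3 cells got compounds at several concentrations plus oleic acid (400 uM solution). Laser-scanning cytometry with 488 nm excitation read lipid droplets at 500-530 nm and cells at 575-640 nm. Percent activity was relative to 20 uM Triacsin C.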
% is set by controls: 0 for no effect and ±100 for the full control effect; potency is the fitted concentration of half-maximal effect.

SMILES	lipid storage change, negative = inhibition	Potency	outcome
Cc1ccc(NC(=O)Cn2c(C)csc2=O)cc1	inconclusive	–	–
C=CCn1c(SCC(=O)Nc2ccc(Cl)cn2)nnc1C1CC1	–	inconclusive: 4.61 µM [activator, partial curve, poor fit]	–
O=C(O)c1cc2cccc(S(=O)(=O)N3CCOCC3)c2cc1O	inconclusive: -26%	–	–
CN(C)/C=N/c1c(C#N)cnn1-c1ccc(C(F)(F)F)cn1	inconclusive: 75.8%	–	–
O=C(NCc1ccco1)[C@@H]1CSC2c3ccccc3C(=O)N21 (some centres undefined)	inconclusive: -102%	–	–
O=C1CCCC2=C1C(c1ccncc1)Nc1ccccc1N2 (centres undefined)	inconclusive: -1.35%	–	–
Cc1ccc(COCCN2CCN(S(=O)(=O)c3ccc(C)cc3)CCC2=O)cc1	inconclusive: 20.4%	–	–
CCOC(=O)C1CCN(C(=O)c2cc(S(=O)(=O)N3CCOCC3)c(Cl)cc2Cl)CC1	–	inconclusive: 0.103 µM [activator, full curve, poor fit]	–
CC(Oc1ccccc1F)C(=O)NCCN1CCCCC1 (centres undefined)	inconclusive: 31.2%	–	–
CCOCc1c(C(=O)OCC(=O)Nc2ccccc2C(N)=O)oc2ccccc12	inconclusive: 21.5%	–	–
Cc1c(C(=O)O)sc2ncn(C)c(=O)c12	–	inconclusive: 29.1 µM [cytotoxic, single point]	–
COC(=O)c1sccc1NC(=S)N1C(C)CCCC1C (centres undefined)	inconclusive: 10.4%	–	–
CCOC(=O)CSc1cc(C)nc(N)n1	inconclusive: -6.86%	–	–
CCOC(=O)C1=C(COC(=O)C2CC(=O)N(c3ccc(CC)cc3)C2)NC(=O)NC1C (centres undefined)	inconclusive: -42.2%	–	–
CCN(Cc1ccncc1)C(=O)CCc1nnc(CCC2CCCCC2)o1	inconclusive: -2.17%	–	–
COc1ccc(NS(=O)(=O)c2cccc(C(=O)NNC(=O)c3ccccc3OC)c2)cc1	inconclusive	–	–
Cc1sc2nc(C(C)C)nc(SCC(=O)N3CCN(C(=O)c4ccco4)CC3)c2c1C	–	inconclusive: 1.64 µM [activator, full curve]	–
N#Cc1cn(OCc2ccccc2)c(=O)[nH]c1=O	inconclusive: -0.819%	–	–
Cn1c(SCC(=O)c2ccccc2)nnc1-c1cnccn1	inconclusive: 7.58%	–	–
Cc1ccc(-c2csc3nnc(SCc4csc(C)n4)n23)cc1	–	inconclusive: 4.11 µM [activator, single point]	–
Cn1c(SCC(=O)Nc2ccccc2F)nnc1-c1cccs1	–	–	inactive [at 46.1 µM]
CCOC(=O)C1CCN(C(=O)CSc2nccc(C)n2)CC1	inconclusive: 13.8%	–	–
O=c1ccc2cc([N+](=O)[O-])c(CCO)cc2o1	inconclusive: -14.1%	–	–
CCC(CC)Nc1ccc(C(CC(N)=O)NC(=O)c2ccccc2)cc1[N+](=O)[O-] (centres undefined)	inconclusive: 67.8%	–	–
COc1ccc(/C=C/c2nnc(NC(=O)c3ccco3)s2)cc1	inconclusive: 6.51%	–	–
Cc1c(C(=O)NCC2CCCO2)oc2ccc3c(c12)C(=O)CC(C)(C)O3 (centres undefined)	inconclusive: -29.8%	–	–
Cc1ccc(NC(=O)CCC(=O)N2CCN(S(=O)(=O)c3ccc(C)cc3)CC2)cc1	–	inconclusive: 0.517 µM [falling, full curve]	–

SMILES	lipid storage change, negative = inhibition	Potency	outcome
CCOC(=O)c1c(NC(=O)CSc2nc3c(c(=O)n(C)c(=O)n3C)n2CC)sc(C)c1C	–	inconclusive: 0.092 µM [activator, full curve, poor fit]	–
CN(Cc1cnccn1)C(=O)CC1C(=O)NCCN1Cc1cccc(Oc2ccccc2)c1 (centres undefined)	inconclusive: 40.1%	–	–
Cc1ccc(NC(=S)N2CCN(c3ccccn3)CC2)c(C)c1	inconclusive: 12.5%	–	–
CCOc1ccc(C(=O)CCN2CCOCC2)cc1	inconclusive: -100%	–	–
O=C(/C=C/c1ccc(Br)cc1)NC(=O)c1ccccc1O	inconclusive: 16.1% [at 9.22 µM]	–	–
CC1(CCc2ccccc2)NC(=O)N(CC(=O)N2CCCCCC2)C1=O (centres undefined)	inconclusive: 26.8% [at 0.0737 µM]	–	–
Cc1nnc(SCc2ccc(C(=O)Nc3cc(Cl)ccc3C)cc2)s1	inconclusive: 22.9%	–	–
O=C(N/N=C/c1ccc([N+](=O)[O-])o1)c1cn(-c2ccccc2)nc1-c1ccc(Cl)cc1	inconclusive: -37.6% [cytotoxic] [at 0.369 µM]	–	–
CN1C2CCC1CC(NS(=O)(=O)c1cccc(C(F)(F)F)c1)C2 (centres undefined)	inconclusive: 7.37%	–	–
CCOC(=O)C1=C(C)OC(N)=C(C#N)C1c1cncc(-c2ccc(F)cc2)c1 (centres undefined)	inconclusive: 17.5%	–	–
O=C(Nc1ccccc1C(=O)N1CCCCCC1)c1cccc([N+](=O)[O-])c1	–	inconclusive: 1.84 µM [activator, partial curve, poor fit]	–
Cc1nn(-c2ccccc2)c(C)c1-c1ccccc1O	–	active: 7.31 µM	–
CN(c1ccccc1)S(=O)(=O)c1ccc(Cl)c(C(=O)OCC(=O)N2CCOCC2)c1	inconclusive: 7.63%	–	–
CSc1nc(C)c(C(=O)Nc2ccccc2)c(-c2ccco2)c1C#N	inconclusive: 20.9%	–	–
CCCc1c(C(=O)N/N=C(/C)c2ccncc2)nnn1-c1nonc1N	inactive: 3.04%	–	–
COc1ccc2nc(CNC(=O)C3CCC(=O)N(CCc4ccccc4)C3)[nH]c2c1 (centres undefined)	–	inconclusive: 0.103 µM [activator, full curve, poor fit]	–
CCOc1cc2[nH]c(=S)n(CCc3ccc(OC)c(OC)c3)c(=O)c2cc1OCC	inconclusive: 1.73%	–	–
Cc1cc(Br)cc2c(C(=O)Nc3c(C)n(C)n(-c4ccccc4)c3=O)cc(-c3cccs3)nc12	inconclusive: -3.98%	–	–
CCc1ncc(C)[nH]1	–	inconclusive: 6.51 µM [activator, single point]	–
COc1ccc(F)cc1S(=O)(=O)NC1CCCCCC1	–	–	inactive [at 46.1 µM]
CC1(C)Cc2c(cnn2-c2ccc(F)cc2)C(NC(=O)CCC(F)(F)F)C1 (centres undefined)	–	inconclusive: 25.9 µM [falling, single point]	–
Cc1cc(C)c2c(n1)SCC(=O)N2CC(=O)Nc1cc(F)ccc1F	–	inconclusive: 29.1 µM [activator, single point]	–
O=C(c1csc2ccccc12)n1cccn1	–	inconclusive: 2.91 µM [falling, partial curve]	–
O=C(COc1ccccc1Cl)NC(=O)NC1CCCC1	–	inconclusive: 29.1 µM [rising, single point]	–
CC12CCC(=O)N1C(C(=O)O)Cc1c2[nH]c2ccccc12 (centres undefined)	–	inconclusive: 13 µM [falling, partial curve, poor fit]	–
CCn1ccc2cc(OC)ccc2c1=S	inconclusive: 7.71%	–	–
Cc1ccc(S(=O)(=O)N2CCC(C(=O)NCCc3ccccc3)CC2)cc1	–	active: 23.1 µM	–

Arranged by count of non-hydrogen atoms (rising): some entries from above.
SMILES	lipid storage change, negative = inhibition	Potency	outcome
CCc1ncc(C)[nH]1	–	inconclusive: 6.51 µM [activator, single point]	–
CCOC(=O)CSc1cc(C)nc(N)n1	inconclusive: -6.86%	–	–
O=C(c1csc2ccccc12)n1cccn1	–	inconclusive: 2.91 µM [falling, partial curve]	–
O=c1ccc2cc([N+](=O)[O-])c(CCO)cc2o1	inconclusive: -14.1%	–	–
N#Cc1cn(OCc2ccccc2)c(=O)[nH]c1=O	inconclusive: -0.819%	–	–
CCOc1ccc(C(=O)CCN2CCOCC2)cc1	inconclusive: -100%	–	–
O=C(COc1ccccc1Cl)NC(=O)NC1CCCC1	–	inconclusive: 29.1 µM [rising, single point]	–
O=C(/C=C/c1ccc(Br)cc1)NC(=O)c1ccccc1O	inconclusive: 16.1% [at 9.22 µM]	–	–
O=C1CCCC2=C1C(c1ccncc1)Nc1ccccc1N2 (centres undefined)	inconclusive: -1.35%	–	–
Cc1ccc(-c2csc3nnc(SCc4csc(C)n4)n23)cc1	–	inconclusive: 4.11 µM [activator, single point]	–
Cc1nnc(SCc2ccc(C(=O)Nc3cc(Cl)ccc3C)cc2)s1	inconclusive: 22.9%	–	–
CC1(CCc2ccccc2)NC(=O)N(CC(=O)N2CCCCCC2)C1=O (centres undefined)	inconclusive: 26.8% [at 0.0737 µM]	–	–
CC1(C)Cc2c(cnn2-c2ccc(F)cc2)C(NC(=O)CCC(F)(F)F)C1 (centres undefined)	–	inconclusive: 25.9 µM [falling, single point]	–
CCOCc1c(C(=O)OCC(=O)Nc2ccccc2C(N)=O)oc2ccccc12	inconclusive: 21.5%	–	–
Cc1ccc(NC(=O)CCC(=O)N2CCN(S(=O)(=O)c3ccc(C)cc3)CC2)cc1	–	inconclusive: 0.517 µM [falling, full curve]	–
CCOC(=O)C1=C(COC(=O)C2CC(=O)N(c3ccc(CC)cc3)C2)NC(=O)NC1C (centres undefined)	inconclusive: -42.2%	–	–
COc1ccc(NS(=O)(=O)c2cccc(C(=O)NNC(=O)c3ccccc3OC)c2)cc1	inconclusive	–	–
Cc1cc(Br)cc2c(C(=O)Nc3c(C)n(C)n(-c4ccccc4)c3=O)cc(-c3cccs3)nc12	inconclusive: -3.98%	–	–

(continued)

SMILES	lipid storage change, negative = inhibition	Potency	outcome
Cc1cc(OCc2ccc(C(=O)NN=C3CCCC3)cc2)ccc1Cl	–	inconclusive: 8.2 µM [activator, partial curve, poor fit]	–
Cc1cnc(CN(C)C(=O)c2ccc3oc(Cc4ccccc4)nc3c2)[nH]1	–	inconclusive: 6.51 µM [activator, single point]	–
COc1ccc(NC(=O)CC(C)CC(=O)NCc2ccc(F)cc2)c(OC)c1 (centres undefined)	inconclusive: 1.8%	–	–
CCOC(=O)N1CCN(C(=O)COc2cc(=O)n(C)c3ccccc23)CC1	–	inconclusive: 20.6 µM [rising, single point]	–
CCOc1cc(CN2CCN(C(=O)c3cccc4ccccc34)CC2)ccc1OC	inconclusive: -28.6%	–	–
CC(CCc1ccccc1)NC(=O)CN1C(=O)NC2(CCCCC2C)C1=O (centres undefined)	inconclusive: -10.9%	–	–
COc1ccc(-n2c(SCC(=O)N3CCCCC3)nnc2-c2cccnc2)cc1	–	inconclusive: 0.103 µM [activator, full curve, poor fit]	–
CCCN1C(=O)/C(=C/c2c(NCCCOCC)nc3c(C)cccn3c2=O)SC1=S	inconclusive: 7.18%	–	–
NC(=O)C1CCN(C(=O)NC2CC(=O)N(c3ccc4c(c3)OCCO4)C2)CC1 (centres undefined)	inconclusive	–	–
COCCn1ccc2c(OCC(=O)NCc3ccc(C)cc3)cccc2c1=O	–	inconclusive: 2.06 µM [activator, full curve, poor fit]	–
Cc1cccc(NC(=O)NNC(=O)c2sccc2-n2cccc2)c1	inconclusive: -3.59%	–	–
Cc1ccc(NC(=O)c2snc3ccc(Cl)cc23)cc1C	inconclusive: -15.2%	–	–
CCOC(=O)C1(CCOC)CCN(CC(C)Cc2ccc3c(c2)OCO3)CC1 (centres undefined)	inconclusive: 7.7%	–	–
Cn1c(=O)c(=O)n(C)c2cc(N3CCCC3)c(NS(=O)(=O)c3ccc(F)cc3)cc21	inconclusive: -16.9%	–	–
Cc1cc(NC(=O)c2cccs2)ncc1NC(=O)c1cccc(F)c1	inactive: -8.75%	–	–
CCOC(=O)N1CCN(c2ccccc2OC)CC1	inconclusive: 5.09%	–	–
CCc1ccc(S(=O)(=O)N2CCCC(N3CCN(c4ccc(OC)cc4)CC3)C2)cc1 (centres undefined)	inconclusive: -58%	–	–
N#CCC(=O)Nc1ccc(C(=O)OCC(=O)N(Cc2ccccc2)C2CCS(=O)(=O)C2)cc1 (centres undefined)	inconclusive: -7.37%	–	–
CCCCCc1c(O)nc(SCCN(CC)CC)[nH]c1=O	inconclusive: -69.7%	–	–
COc1ccc(C2C=C(C)Nc3nc4ccccc4n32)cc1 (centres undefined)	inconclusive: 42.3%	–	–
CC1=C(C(=O)OC(C)C)C(c2c[nH]c3ccccc23)n2ncnc2N1 (centres undefined)	inconclusive: -6.72%	–	–
O=C(CCS(=O)(=O)c1ccccc1)N1CCN(c2ccccc2F)CC1	–	inconclusive: 29.1 µM [activator, single point]	–
O=C(NC1CCC(C(=O)O)CC1)OCc1ccccc1 (centres undefined)	inconclusive: -54.8%	–	–
NC(=O)C1CCCN(C(=O)Nc2cccc3ccccc23)C1 (centres undefined)	inconclusive: 5.22%	–	–
CC(C)n1ncc2c(C(=O)NCc3cccnc3)cc(C3CC3)nc21	inconclusive	–	–
